Among all 340,000 compounds or so, about 170 (0.05%) were called active. Inconclusive means that the source gave no clear call. Such entries were picked first, then a sample of the others. Calls follow the shape of the dose curve; as a rule, active = well fitted inhibition curve with a large enough effect in the signal ratio, with a control signal flat (not every such curve was filed as active); inconclusive = small, poorly fitted or top-dose-only effect, or effect the other way, or a change in a side signal; inactive = flat fitted curve, though single readings scatter; the % refers to the signal ratio. Potencies of inconclusive entries are doubtful fits and often do not repeat.
Test: qHTS Assay to Find Inhibitors of Chronic Active B-Cell Receptor Signaling;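 as to activity change, negative = inhibition: plate controls were basal doxycycline-induced cells for no effect and cells given 10 µM MG132 for full effect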
Settings: ABC-DLBCL IkBa-CBG/CBR reporter, luminescence ratio (green luciferase fused to IkBa over red control in TMD8 lymphoma cells), 4 h; activity change, negative = inhibition: at 46.1 µM (top of the series)
Method in brief: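 TMD8 ABC-DLBCL cells carrying doxycycline-inducible green luciferase fused to IkappaBalpha plus unfused red luciferase were exposed to compounds (up to 46 uM) for 4 hrs at 37C. Activity came from the overlap-corrected green/red luminescence ratio.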
Potency is read from the fitted curve at half-maximal effect.

Row | SMILES | Potency | activity change, negative = inhibition
1 | Cc1cccc(-c2nnc(SCCC(=O)N3CCOCC3)o2)c1 | inconclusive: 8.2 µM [rising, partial curve, poor fit] | –
2 | COc1ccc(OCC(=O)Nc2ccccc2O)cc1 | inconclusive: 1.46 µM [rising, full curve, poor fit] | –
3 | CCOC(=O)c1oc2cc(O)ccc2c(=O)c1-c1ccccc1OC | inconclusive: 11.2 µM [falling, partial curve] | –
4 | CCOc1ccc(N(CC(=O)N2CCCC2)S(=O)(=O)c2ccc(Cl)cc2)cc1 | – | inactive
5 | O=C(/C=C/Sc1ncn[nH]1)c1ccc(Cl)cc1 | inconclusive: 3.55 µM [cytotoxic, partial curve] | –
6 | Cc1nc2c3ccccc3nc(NNC(=O)CCC(=O)N3CCCC(C)C3)n2n1 (configuration not stated) | – | inactive
7 | COc1cccc(-c2ncc3ccccc3c2COC(=O)c2ccc(F)cc2)c1 | inconclusive: 9.2 µM [falling, partial curve] | –
8 | COc1cc(NC(=O)c2ccc(Br)cc2)ccc1NC(=O)c1cc2ccccc2o1 | – | inactive
9 | COc1cccc(CNC(=O)COC(=O)c2nc(Cl)c(Cl)c(Cl)c2Cl)c1 | inconclusive: 18.4 µM [falling, single point] | –
10 | CCOc1cc2[nH]c(=S)n(CCN3CCCCC3CC)c(=O)c2cc1OCC (configuration not stated) | – | inconclusive: -1.39%
11 | O=C(Nc1ccncc1)c1cc(-c2cccc(Br)c2)nc2ccccc12 | – | inconclusive: -8.13%
12 | Cc1ccc(/C=N/NC(=O)CSc2nc3ccccc3[nH]2)o1 | – | inconclusive: -4.47%
13 | NC(=NCc1ccco1)NC(=O)c1ccccc1 | – | inactive
14 | CCOC(=O)c1[nH]c(C)c(C(=O)Nc2ccc(C)c(Cl)c2)c1C | – | inactive
15 | Cc1c(CBr)[n+](=O)c2c(n1[O-])C(Br)CCC2Br (configuration not stated) | – | inconclusive: 17.2%
16 | COc1ccc(/C=C(\NC(=O)c2cccs2)C(=O)Nc2cccc3ccccc23)cc1OC | – | inconclusive: -0.472%
17 | Cc1nc(SCC#N)c2c(C)c(C)sc2n1 | – | inconclusive: -9.89%
18 | COc1cccc(NC(=O)N2CCCc3ccccc32)c1 | inconclusive: 35.5 µM [falling, single point] | –
19 | CCOC(=O)c1sc(N(Cc2ccccc2)C(=O)COC(=O)c2ccc(O)cc2)nc1C | – | inconclusive: 9.65%
20 | COc1ccc(CCN(Cc2nc3ccccc3c(=O)[nH]2)C(=O)c2ccco2)cc1OC | – | inconclusive: 3.15%
21 | Cc1ccc(Nc2nnc(SC(C)C(=O)NCC3CCCO3)s2)cc1C (configuration not stated) | – | inconclusive: -4.94%
22 | COc1ccc(-c2nc3ccc(C)cn3c2NCc2ccc3c(c2)OCO3)cc1 | inconclusive: 35.5 µM [falling, single point] | –
23 | O=C(NNC(=O)c1csc(-c2cccnc2)n1)c1ccccc1 | inconclusive: 11.2 µM [falling, partial curve, poor fit] | –
24 | CCc1nc2ccccc2c(C(=O)O)c1C | – | inconclusive: 1.79%
25 | COc1cc(OC)c(NC(=S)Nc2cc(Cl)cc(Cl)c2)cc1Cl | – | inconclusive: 5.23%
26 | Cn1c(O)c(N=NC(=O)Cn2c(C(F)(F)F)nc3ccccc32)c2ccccc21 | – | inconclusive: 0.653%

Record cards, as listed above. Order of values: Potency | activity change, negative = inhibition
`COc1ccc(/C=C(\NC(=O)c2cccs2)C(=O)Nc2cccc3ccccc23)cc1OC` is entered as – | inconclusive: -0.472%
`CCOc1cc2[nH]c(=S)n(CCN3CCCCC3CC)c(=O)c2cc1OCC` (configuration not stated) is entered as – | inconclusive: -1.39%

Remaining list, next part.

Row | SMILES | Potency | activity change, negative = inhibition
27 | Cc1ccc(CCC(=O)Nc2ccccc2F)s1 | inconclusive: 35.5 µM [rising, single point] | –
28 | CCCSc1ccc([C@H]2N[C@@](CC(C)C)(C(=O)OC)[C@H]3C(=O)N(C)C(=O)[C@@H]23)cc1 | – | inactive
29 | COc1cc(C(=S)N2CCN(C(c3ccccc3)c3ccccc3)CC2)cc(OC)c1O | inconclusive: 25.1 µM [falling, single point] | –
30 | Cc1cc2c(sc3ccccc32)c(C)n1 | – | inconclusive: 11.8%
31 | O=C(O)c1ccc(N=NN2CCCCC2)cc1 | inconclusive: 12.6 µM [falling, partial curve] | –
32 | O=C(Nc1ccccc1)Nc1ccc(Cl)c([N+](=O)[O-])c1 | – | inconclusive: 6.77%
33 | CC(/C=N\Nc1nnc2c(n1)[nH]c1c(C)cccc12)=C\c1ccco1 | – | inconclusive: -9.89%
34 | Clc1ccccc1-c1nnc2sc(-c3ccco3)nn12 | – | inactive
35 | Cc1ccc(NC(=O)CCc2ccc(S(=O)(=O)NC3CCCCC3)cc2)cc1 | – | inconclusive: 1.93%
36 | C=CCN(CC=C)C(=O)c1ccccc1NC(=O)c1ccccc1C | – | inconclusive: 7.24%
37 | CCOc1ccc(Nc2ccc([N+](=O)[O-])c3nonc23)cc1 | – | inconclusive: 14.3%
38 | COc1cc(NC(=O)c2cnn3c(C)cc(C)nc23)c(OC)cc1Cl | – | inconclusive: 11.5%
39 | COc1cc(C(=O)NCCC2=CCCCC2)ccc1OCc1c(C)noc1C | – | inconclusive: 0.675%
40 | Cc1cc(C)c(C(=O)/C=C/c2ccco2)c(=O)[nH]1 | inconclusive: 20 µM [falling, partial curve] | –
41 | COc1cc(NC(=O)c2oc3ccccc3c2C)ccc1NC(=O)c1ccco1 | – | inconclusive: -22.6%
42 | Cc1ccc(C)c(SCC(=O)OCC(=O)c2ccco2)c1 | – | inactive
43 | CC(=O)NCc1ccc(-c2nc3ccccc3s2)cc1 | – | inactive
44 | O=C(O)c1ccccc1NS(=O)(=O)c1ccc(NN=Cc2ccc(F)cc2)c([N+](=O)[O-])c1 | – | inconclusive: 5.96%
45 | Cc1nc2nc[nH]n2c(=O)c1NS(=O)(=O)c1ccc([N+](=O)[O-])cc1 | – | inconclusive: 9.79%
46 | Cc1cccc(S(=O)(=O)Nc2ccc(-c3ccc4nncn4n3)cc2)c1 | – | inconclusive: 10.7%
47 | O=C1CC(C(=O)O)S/C(=N\NC(=O)c2ccc(F)cc2)N1 (configuration not stated) | – | inconclusive: 6.61%
48 | O=C(Cn1c(=O)oc2ccccc21)NC(=O)NCc1ccco1 | – | inconclusive: 4.34%
49 | O=C(NCc1ccccc1)C1CCCN(C(=O)Nc2ccccc2)C1 (configuration not stated) | – | inconclusive: 15.9%
50 | COc1ccc2c(COC(=O)c3n[nH]c4ccccc34)cc(=O)oc2c1 | inconclusive: 0.058 µM [falling, partial curve, poor fit] | –
51 | COc1cccc(Nc2nc(N)nc(C(F)(F)F)n2)c1 | – | inconclusive: -3.03%
52 | O=C(O)CCC(=O)NCc1ccc2[nH]c3c(c2c1)CCCC3 | inconclusive: 16.4 µM [falling, partial curve] | –

— PubChem BioAssay AID493014 (National Center for Advancing Translational Sciences (NCATS), 2011)
